Record: PubChem BioAssay AID1671195 (Yale University, 2021)
This is a random part of about 22,000 reagents. Over the whole deposit, about 1,510 (6.9%) are marked active. 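Active includes knockdowns raising or lowering LDL uptake; positive z-scores mean more uptake, negative mean less.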

Test: 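Regulators of LDL receptor activity judged by labelled LDL uptake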 (primary screen)
System: human Huh7 hepatoma cells
Reagent: siRNA pool against human genes, 18 nM
Time to read-out: about 2 to 2.5 days of knockdown, then 8 h LDL uptake
Challenge: DiI-labelled LDL at 30 µg/ml for 8 h, in lipoprotein-deficient serum medium
Read-out: 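Per-cell DiI-LDL intensity by automated imaging; well means scaled to the plate median and given as a robust z-score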
Direction: robust z-score: higher = more LDL uptake after knockdown
Rule for the call: 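Active when two or more replicates show a robust z-score above 2 or below -2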

For LIPT2-AS1 (LIPT2 antisense RNA 1) [SID442893230], how do the results read?
robust z-score, replicate 1: -0.0021; robust z-score, replicate 2: 0.324; robust z-score, replicate 3: -0.0998; call: inactive

With PPP2R5D (protein phosphatase 2 regulatory subunit B'delta) [SID442893235], how do the results read?
robust z-score, replicate 1: -0.0995; robust z-score, replicate 2: 0.0814; robust z-score, replicate 3: 0.238; call: inactive

What did the screen give for B3GNT6 [SID442896678]?
robust z-score, replicate 1: -0.404; robust z-score, replicate 2: -0.399; robust z-score, replicate 3: -0.0964; call: inactive

What did the screen give for TKT (transketolase) [SID442888566]?
robust z-score, replicate 1: 0.798; robust z-score, replicate 2: 0.169; robust z-score, replicate 3: 1.12; call: inactive

How did the screen score NRXN3 (neurexin 3) [SID442893882]?
robust z-score, replicate 1: 0.38; robust z-score, replicate 2: -0.167; robust z-score, replicate 3: -0.212; call: inactive

How did the screen score IKBKG [SID442894620]?
robust z-score, replicate 1: -0.192; robust z-score, replicate 2: 0.356; robust z-score, replicate 3: -0.413; call: inactive

Which result is listed for CYTOR (cytoskeleton regulator RNA) [SID442904201]?
robust z-score, replicate 1: -1.57; robust z-score, replicate 2: -1.41; robust z-score, replicate 3: -1.59; call: inactive

For UCHL3 (ubiquitin C-terminal hydrolase L3) [SID442889149], how do the results read?
robust z-score, replicate 1: 0.473; robust z-score, replicate 2: 0.855; robust z-score, replicate 3: 0.488; call: inactive

What did the screen give for TMEM33 (transmembrane protein 33) [SID442886411]?
robust z-score, replicate 1: 0.942; robust z-score, replicate 2: 2.05; robust z-score, replicate 3: 0.517; call: inactive

For LOC389159 (retired record) [SID442883201], how do the results read?
robust z-score, replicate 1: 2.93; robust z-score, replicate 2: 4.93; robust z-score, replicate 3: 4.04; call: active

With ZNF662 (zinc finger protein 662) [SID442886947], what was measured?
robust z-score, replicate 1: 2.47; robust z-score, replicate 2: 0.571; robust z-score, replicate 3: 0.03; call: inactive

In a second layout: entries from further up.
UCHL3 (ubiquitin C-terminal hydrolase L3) [SID442889149]
- robust z-score, replicate 1: 0.473
- robust z-score, replicate 2: 0.855
- robust z-score, replicate 3: 0.488
- call: inactive

TMEM33 (transmembrane protein 33) [SID442886411]
- robust z-score, replicate 1: 0.942
- robust z-score, replicate 2: 2.05
- robust z-score, replicate 3: 0.517
- call: inactive

LOC389159 (retired record) [SID442883201]
- robust z-score, replicate 1: 2.93
- robust z-score, replicate 2: 4.93
- robust z-score, replicate 3: 4.04
- call: active

ZNF662 (zinc finger protein 662) [SID442886947]
- robust z-score, replicate 1: 2.47
- robust z-score, replicate 2: 0.571
- robust z-score, replicate 3: 0.03
- call: inactive

Next results follow:
With TRPM6 [SID442900710], how do the results read?
robust z-score, replicate 1: -0.963; robust z-score, replicate 2: -1.05; robust z-score, replicate 3: -0.373; call: inactive

For NAT16 (N-acetyltransferase 16 (putative)) [SID442899312], how do the results read?
robust z-score, replicate 1: -0.886; robust z-score, replicate 2: -0.457; robust z-score, replicate 3: -0.467; call: inactive

For MS4A10 (membrane spanning 4-domains A10) [SID442901545], how do the results read?
robust z-score, replicate 1: -1.17; robust z-score, replicate 2: -0.567; robust z-score, replicate 3: -1.01; call: inactive

How did the screen score LOC440477 (retired record) [SID442900044]?
robust z-score, replicate 1: -0.535; robust z-score, replicate 2: -0.683; robust z-score, replicate 3: -0.893; call: inactive

With EEIG1 (estrogen-induced osteoclastogenesis regulator 1) [SID442898910], what was measured?
robust z-score, replicate 1: -1.92; robust z-score, replicate 2: 0.112; robust z-score, replicate 3: 0.145; call: inactive

Which result is listed for ZNF85 (zinc finger protein 85) [SID442884748]?
robust z-score, replicate 1: -2.71; robust z-score, replicate 2: -1.78; robust z-score, replicate 3: -1.27; call: inactive

How did the screen score GDA (guanine deaminase) [SID442896115]?
robust z-score, replicate 1: -0.165; robust z-score, replicate 2: -0.171; robust z-score, replicate 3: -0.383; call: inactive

For FCAR (Fc alpha receptor) [SID442886909], what does the deposit list?
robust z-score, replicate 1: 1.02; robust z-score, replicate 2: 0.855; robust z-score, replicate 3: 1.22; call: inactive

What did the screen give for PRDM8 (PR/SET domain 8) [SID442900486]?
robust z-score, replicate 1: -0.825; robust z-score, replicate 2: -0.517; robust z-score, replicate 3: -0.957; call: inactive

With OR5P3 (olfactory receptor family 5 subfamily P member 3) [SID442901369], what does the deposit list?
robust z-score, replicate 1: -0.67; robust z-score, replicate 2: -0.714; robust z-score, replicate 3: -1.29; call: inactive

For ANLN (anillin, actin binding protein) [SID442899032], what does the deposit list?
robust z-score, replicate 1: -0.305; robust z-score, replicate 2: -0.883; robust z-score, replicate 3: -0.518; call: inactive

What is on record for HOXA13 (homeobox A13) [SID442894286]?
robust z-score, replicate 1: 0.38; robust z-score, replicate 2: -0.0256; robust z-score, replicate 3: -0.493; call: inactive

With EIF3FP2 [SID442903997], how do the results read?
robust z-score, replicate 1: -1.56; robust z-score, replicate 2: -1.35; robust z-score, replicate 3: -1.46; call: inactive
